The text below walks through data of the supplement of paper PMC10849652.

The chains behind the UniProt entries cited, without tags or fusion partners. Where a name states a change or a piece, a line headed by the entry shows the natural chain unless it says otherwise.
UniProt Q9NSD9: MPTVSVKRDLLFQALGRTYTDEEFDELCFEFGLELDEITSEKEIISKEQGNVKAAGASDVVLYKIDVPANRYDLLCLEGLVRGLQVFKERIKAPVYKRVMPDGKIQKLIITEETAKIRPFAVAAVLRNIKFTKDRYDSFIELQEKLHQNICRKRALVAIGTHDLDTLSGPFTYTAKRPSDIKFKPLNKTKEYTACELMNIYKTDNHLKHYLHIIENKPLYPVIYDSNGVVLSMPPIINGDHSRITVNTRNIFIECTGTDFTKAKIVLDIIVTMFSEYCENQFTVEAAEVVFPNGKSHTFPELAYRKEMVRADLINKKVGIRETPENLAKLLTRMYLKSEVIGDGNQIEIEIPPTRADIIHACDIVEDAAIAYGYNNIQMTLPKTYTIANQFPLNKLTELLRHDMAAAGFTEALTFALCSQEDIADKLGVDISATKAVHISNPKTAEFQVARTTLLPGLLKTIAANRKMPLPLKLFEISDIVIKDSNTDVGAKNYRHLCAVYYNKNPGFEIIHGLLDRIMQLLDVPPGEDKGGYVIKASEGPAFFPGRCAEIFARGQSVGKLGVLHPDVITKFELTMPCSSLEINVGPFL
UniProt O75955: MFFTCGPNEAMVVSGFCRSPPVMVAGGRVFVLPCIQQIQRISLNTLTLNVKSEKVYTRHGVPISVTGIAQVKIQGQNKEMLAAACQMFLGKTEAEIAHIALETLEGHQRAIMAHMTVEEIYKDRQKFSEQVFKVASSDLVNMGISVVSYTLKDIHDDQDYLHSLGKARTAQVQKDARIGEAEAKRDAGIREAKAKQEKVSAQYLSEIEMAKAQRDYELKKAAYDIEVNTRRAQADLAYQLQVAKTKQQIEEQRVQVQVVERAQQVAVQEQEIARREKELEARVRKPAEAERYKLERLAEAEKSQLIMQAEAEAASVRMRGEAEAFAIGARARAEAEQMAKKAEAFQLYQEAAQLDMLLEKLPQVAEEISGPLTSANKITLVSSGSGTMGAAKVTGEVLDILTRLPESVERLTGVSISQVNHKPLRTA
UniProt Q8N0W3: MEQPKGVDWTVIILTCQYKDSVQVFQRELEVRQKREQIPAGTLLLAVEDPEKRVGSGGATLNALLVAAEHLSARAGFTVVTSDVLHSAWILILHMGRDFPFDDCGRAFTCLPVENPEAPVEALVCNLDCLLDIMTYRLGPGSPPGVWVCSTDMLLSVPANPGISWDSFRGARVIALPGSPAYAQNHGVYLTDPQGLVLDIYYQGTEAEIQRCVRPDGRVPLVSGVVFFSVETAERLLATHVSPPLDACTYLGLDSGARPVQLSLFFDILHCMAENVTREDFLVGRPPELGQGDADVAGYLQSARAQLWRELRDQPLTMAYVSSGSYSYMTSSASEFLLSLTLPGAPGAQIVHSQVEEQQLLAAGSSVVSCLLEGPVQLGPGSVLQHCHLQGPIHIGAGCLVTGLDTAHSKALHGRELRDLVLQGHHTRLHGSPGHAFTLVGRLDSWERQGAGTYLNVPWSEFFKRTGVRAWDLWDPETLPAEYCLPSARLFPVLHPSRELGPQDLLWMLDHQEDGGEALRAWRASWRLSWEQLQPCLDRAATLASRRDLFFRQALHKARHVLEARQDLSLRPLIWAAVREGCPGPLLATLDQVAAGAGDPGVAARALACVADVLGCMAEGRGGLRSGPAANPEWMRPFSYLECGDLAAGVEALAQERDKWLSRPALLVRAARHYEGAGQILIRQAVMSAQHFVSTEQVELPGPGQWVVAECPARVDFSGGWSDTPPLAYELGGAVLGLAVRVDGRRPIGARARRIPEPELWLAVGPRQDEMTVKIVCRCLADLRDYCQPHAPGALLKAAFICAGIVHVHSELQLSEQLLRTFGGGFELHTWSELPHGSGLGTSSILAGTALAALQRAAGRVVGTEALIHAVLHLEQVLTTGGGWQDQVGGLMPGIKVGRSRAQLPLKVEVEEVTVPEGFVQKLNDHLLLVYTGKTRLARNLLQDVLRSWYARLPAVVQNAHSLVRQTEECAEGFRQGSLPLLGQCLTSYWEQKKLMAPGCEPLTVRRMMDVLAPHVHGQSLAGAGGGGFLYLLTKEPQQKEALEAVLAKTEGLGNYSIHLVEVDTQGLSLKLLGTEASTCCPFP
UniProt P0C5J1: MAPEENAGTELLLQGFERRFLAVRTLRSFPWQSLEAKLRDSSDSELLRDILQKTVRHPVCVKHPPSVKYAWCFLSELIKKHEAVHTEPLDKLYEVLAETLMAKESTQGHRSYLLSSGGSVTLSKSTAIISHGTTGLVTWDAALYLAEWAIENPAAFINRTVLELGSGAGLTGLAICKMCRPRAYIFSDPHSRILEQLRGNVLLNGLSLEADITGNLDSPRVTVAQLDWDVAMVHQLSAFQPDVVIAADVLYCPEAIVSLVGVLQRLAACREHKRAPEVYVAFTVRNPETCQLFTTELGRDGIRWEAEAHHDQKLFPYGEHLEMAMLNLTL
UniProt Q9Y5Y0: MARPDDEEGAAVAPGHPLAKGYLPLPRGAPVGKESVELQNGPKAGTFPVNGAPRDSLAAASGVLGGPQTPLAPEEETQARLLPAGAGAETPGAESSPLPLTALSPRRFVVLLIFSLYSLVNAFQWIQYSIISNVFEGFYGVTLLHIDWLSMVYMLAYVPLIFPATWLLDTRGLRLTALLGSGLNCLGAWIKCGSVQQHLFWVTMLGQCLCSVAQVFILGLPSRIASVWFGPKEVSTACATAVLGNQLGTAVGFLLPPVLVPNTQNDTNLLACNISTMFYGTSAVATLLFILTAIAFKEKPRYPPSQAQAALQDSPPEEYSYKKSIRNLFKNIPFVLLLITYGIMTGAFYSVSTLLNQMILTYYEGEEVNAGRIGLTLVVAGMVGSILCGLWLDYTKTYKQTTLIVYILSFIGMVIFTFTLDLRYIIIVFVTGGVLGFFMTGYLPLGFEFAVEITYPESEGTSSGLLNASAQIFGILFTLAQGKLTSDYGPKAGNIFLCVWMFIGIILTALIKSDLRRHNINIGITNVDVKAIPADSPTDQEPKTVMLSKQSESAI
UniProt Q8TB52: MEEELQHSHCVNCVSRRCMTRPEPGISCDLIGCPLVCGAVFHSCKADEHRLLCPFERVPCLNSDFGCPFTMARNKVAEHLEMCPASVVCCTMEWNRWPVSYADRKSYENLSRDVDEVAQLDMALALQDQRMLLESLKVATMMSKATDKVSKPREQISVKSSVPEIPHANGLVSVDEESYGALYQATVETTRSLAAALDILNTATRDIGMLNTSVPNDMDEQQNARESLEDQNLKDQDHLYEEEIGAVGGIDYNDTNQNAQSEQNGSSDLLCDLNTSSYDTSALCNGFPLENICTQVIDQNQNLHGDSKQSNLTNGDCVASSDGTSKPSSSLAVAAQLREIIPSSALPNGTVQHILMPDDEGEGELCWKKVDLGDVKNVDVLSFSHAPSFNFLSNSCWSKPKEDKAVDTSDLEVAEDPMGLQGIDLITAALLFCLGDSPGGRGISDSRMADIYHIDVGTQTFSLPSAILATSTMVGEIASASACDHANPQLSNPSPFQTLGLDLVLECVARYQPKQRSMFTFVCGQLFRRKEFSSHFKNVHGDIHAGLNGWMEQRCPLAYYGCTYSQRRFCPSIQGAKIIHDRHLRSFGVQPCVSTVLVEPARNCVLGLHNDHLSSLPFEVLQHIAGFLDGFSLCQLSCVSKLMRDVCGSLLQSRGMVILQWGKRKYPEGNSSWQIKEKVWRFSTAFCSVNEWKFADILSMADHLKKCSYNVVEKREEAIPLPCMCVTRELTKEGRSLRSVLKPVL
UniProt P26885: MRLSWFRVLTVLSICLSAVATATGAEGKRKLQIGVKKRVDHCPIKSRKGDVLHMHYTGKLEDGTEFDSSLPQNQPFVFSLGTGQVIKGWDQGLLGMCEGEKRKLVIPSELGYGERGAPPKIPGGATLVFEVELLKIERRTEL
UniProt Q5T1M5: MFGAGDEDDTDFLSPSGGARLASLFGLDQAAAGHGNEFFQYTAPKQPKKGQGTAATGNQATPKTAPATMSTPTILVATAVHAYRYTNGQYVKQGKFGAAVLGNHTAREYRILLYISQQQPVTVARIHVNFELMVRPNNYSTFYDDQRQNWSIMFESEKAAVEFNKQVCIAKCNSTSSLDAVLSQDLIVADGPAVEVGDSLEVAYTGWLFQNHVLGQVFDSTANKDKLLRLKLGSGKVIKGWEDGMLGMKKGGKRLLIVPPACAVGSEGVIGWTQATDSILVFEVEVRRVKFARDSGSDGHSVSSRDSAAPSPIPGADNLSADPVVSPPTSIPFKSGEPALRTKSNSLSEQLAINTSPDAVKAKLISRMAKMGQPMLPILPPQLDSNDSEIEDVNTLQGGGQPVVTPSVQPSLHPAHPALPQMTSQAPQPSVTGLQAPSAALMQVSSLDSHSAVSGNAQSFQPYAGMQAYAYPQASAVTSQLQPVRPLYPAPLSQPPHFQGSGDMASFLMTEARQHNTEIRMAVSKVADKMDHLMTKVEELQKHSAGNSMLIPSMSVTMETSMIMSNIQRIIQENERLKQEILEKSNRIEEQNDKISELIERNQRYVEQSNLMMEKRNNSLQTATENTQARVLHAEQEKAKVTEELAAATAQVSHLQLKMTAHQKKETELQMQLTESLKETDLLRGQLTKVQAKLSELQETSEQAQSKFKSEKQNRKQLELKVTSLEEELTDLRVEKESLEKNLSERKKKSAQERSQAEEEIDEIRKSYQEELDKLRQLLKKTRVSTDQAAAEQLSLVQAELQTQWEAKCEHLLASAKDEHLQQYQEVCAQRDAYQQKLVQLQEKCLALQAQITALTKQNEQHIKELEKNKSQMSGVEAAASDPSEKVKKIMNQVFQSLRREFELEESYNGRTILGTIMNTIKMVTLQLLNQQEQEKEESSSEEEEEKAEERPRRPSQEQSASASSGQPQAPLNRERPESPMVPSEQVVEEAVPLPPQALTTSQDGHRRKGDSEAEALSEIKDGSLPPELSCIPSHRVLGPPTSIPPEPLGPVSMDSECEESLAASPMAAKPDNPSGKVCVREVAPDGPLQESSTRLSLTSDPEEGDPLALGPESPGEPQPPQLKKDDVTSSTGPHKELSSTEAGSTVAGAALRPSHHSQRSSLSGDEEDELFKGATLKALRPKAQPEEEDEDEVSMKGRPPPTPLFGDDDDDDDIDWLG
UniProt Q8N3X1: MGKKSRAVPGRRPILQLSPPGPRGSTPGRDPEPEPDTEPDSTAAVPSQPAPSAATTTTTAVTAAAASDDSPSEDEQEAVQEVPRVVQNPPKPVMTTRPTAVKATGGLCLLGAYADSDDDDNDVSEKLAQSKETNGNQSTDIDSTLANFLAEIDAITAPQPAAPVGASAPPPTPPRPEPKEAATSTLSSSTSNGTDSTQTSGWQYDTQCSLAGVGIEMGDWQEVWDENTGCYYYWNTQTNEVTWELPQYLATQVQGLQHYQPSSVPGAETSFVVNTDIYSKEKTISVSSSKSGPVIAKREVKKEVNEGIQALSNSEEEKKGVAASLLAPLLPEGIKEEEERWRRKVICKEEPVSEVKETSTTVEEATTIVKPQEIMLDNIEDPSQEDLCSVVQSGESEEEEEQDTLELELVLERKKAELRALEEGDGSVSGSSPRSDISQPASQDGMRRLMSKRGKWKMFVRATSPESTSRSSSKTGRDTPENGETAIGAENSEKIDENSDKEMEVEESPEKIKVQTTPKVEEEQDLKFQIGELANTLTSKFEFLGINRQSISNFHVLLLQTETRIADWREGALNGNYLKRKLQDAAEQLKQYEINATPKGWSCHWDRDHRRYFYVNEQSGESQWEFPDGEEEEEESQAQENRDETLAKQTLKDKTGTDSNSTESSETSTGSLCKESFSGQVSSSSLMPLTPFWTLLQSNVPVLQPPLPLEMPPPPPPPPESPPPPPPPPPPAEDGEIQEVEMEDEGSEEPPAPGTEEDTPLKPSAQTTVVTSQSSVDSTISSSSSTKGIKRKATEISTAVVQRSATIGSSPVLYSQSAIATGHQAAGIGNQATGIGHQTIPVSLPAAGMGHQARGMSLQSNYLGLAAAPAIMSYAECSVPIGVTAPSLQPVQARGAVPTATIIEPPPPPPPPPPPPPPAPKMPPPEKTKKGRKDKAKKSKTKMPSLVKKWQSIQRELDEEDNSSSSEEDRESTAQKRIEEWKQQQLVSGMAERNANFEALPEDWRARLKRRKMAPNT
UniProt Q52LJ0: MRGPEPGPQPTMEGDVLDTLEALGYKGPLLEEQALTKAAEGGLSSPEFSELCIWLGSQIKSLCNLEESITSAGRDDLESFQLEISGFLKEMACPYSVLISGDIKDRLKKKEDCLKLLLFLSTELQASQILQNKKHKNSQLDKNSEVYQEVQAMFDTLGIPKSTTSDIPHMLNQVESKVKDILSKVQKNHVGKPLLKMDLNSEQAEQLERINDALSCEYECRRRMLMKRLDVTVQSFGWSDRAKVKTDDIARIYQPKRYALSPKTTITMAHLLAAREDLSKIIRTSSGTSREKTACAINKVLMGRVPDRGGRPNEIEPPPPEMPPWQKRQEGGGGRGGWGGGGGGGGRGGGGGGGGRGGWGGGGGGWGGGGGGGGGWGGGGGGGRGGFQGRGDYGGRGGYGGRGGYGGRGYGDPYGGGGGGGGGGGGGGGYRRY

The list shows a part of the results.

Compound in the first assay: CC1=C(C=C(C=C1)NC(=O)C2=CC(=CC=C2)C(C)(C)C#N)NC3=CC4=C(C=C3)N=CN(C4=O)C
In words: log2 fold change, soluble protein after heating vs DMSO (PISA); higher = thermal stabilisation; K562 cells, 10 uM, 30 min; active = over 0.2 and 3.5 SD of the protein, either way, in both replicates (recomputed). A digest of the protocol: (§1)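 Quantification of soluble protein used TMTpro 16plex LC-MS/MS, with channel sums equalised. Samples were the supernatant after 21,000xg for 90 min of pooled aliquots from K562 cells (2×10^6 cells/mL) treated with 10 μM compound for 30 min, heated for 3 min over 48°C-58°C, and extracted in PBS with 0.5% NP-40 at 4°C. Values, from duplicates, describe thermal stability against control samples on a log2 fold-change scale.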
Regarding FBLL1 (UniProt A6NHQ2), the log2 fold change was inactive: 0.013. Same read-out and setting: as for FBXO5 (UniProt Q9UKT4), the figure is inactive: -0.031; as for FARSB (UniProt Q9NSD9), inactive: 0.036.

With FLOT1 (UniProt O75955), the log2 fold change was inactive: 0.024. For the target FCSK isoform 2 (UniProt Q8N0W3), the log2 fold change was inactive: -0.035. Still for that read-out and setting: under FAM86B2 (UniProt P0C5J1) stands inactive: -0.006; under FBXO22 (UniProt Q8NEZ5), inactive: 0.004; under FN3K (UniProt Q9H479), inactive: 0.037. On the same count and under the same terms, as for FCGR2A (UniProt P12318), the figure is inactive: -0.05; as for FN3KRP (UniProt Q9HA64), inactive: -0.016; as for FAM98A (UniProt Q8NCA5), inactive: 0.03.

FKBP9 (UniProt O95302): the log2 fold change was inactive: 0.003.

Take FAU (UniProt P62861): the log2 fold change is inactive: 0.01. Same read-out and setting: as for FKBP5 (UniProt Q13451), the figure is inactive: -0.052; as for FDX2 (UniProt Q6P4F2), inactive: -0.107. For FAM32A (UniProt Q9Y421), the log2 fold change was inactive: -0.054.

Compound in another assay: CC1=C(C=C(C=C1)NC(=O)C2=CC(=CC=C2)N(C)C)NC(=O)C3=CC=C(C=C3)O
The description is as above. A digest of the protocol:
as §1
As to FDX1 (UniProt P10109), the log2 fold change was inactive: 0. Still for that read-out and setting: as for FBXL12 (UniProt Q9NXK8), the figure is inactive: -0.104. Same read-out and setting: under FKBPL (UniProt Q9UIM3) stands inactive: 0.006. The same measure, in the same setting: under FCGR2C (UniProt P31995) stands inactive: -0.052; under FANCB (UniProt Q8NB91), inactive: 0.027. In the case of FIP1L1 (UniProt Q6UN15), the log2 fold change was inactive: 0.062.

On to FLVCR1 (UniProt Q9Y5Y0), for which the log2 fold change was inactive: 0.003. As to FAM49B (UniProt Q9NUQ9), the log2 fold change is inactive: 0.015. As for FAM210A (UniProt Q96ND0), the log2 fold change was inactive: -0.059. Turning to FBXO30 (UniProt Q8TB52), the log2 fold change is inactive: -0.055. As for FKBP2 (UniProt P26885), the log2 fold change is inactive: -0.023. As for FKBP15 (UniProt Q5T1M5), the log2 fold change is inactive: -0.016. The same measure, in the same setting: as for FAR1 (UniProt Q8WVX9), the figure is inactive: -0.028; as for FH (UniProt P07954), inactive: -0.015. Same read-out and setting: as for FLII (UniProt Q13045), the figure is inactive: -0.016. On the same count and under the same terms, under FNBP4 isoform 2 (UniProt Q8N3X1) stands inactive: 0.032. As to FAM98B (UniProt Q52LJ0), the log2 fold change was inactive: -0.085. On the same count and under the same terms, as for FBXL20 (UniProt Q96IG2), the figure is inactive: -0.042.

Take FBXL18 isoform 4 (UniProt Q96ME1): the log2 fold change was inactive: -0.006. Same read-out and setting: under FLYWCH2 (UniProt Q96CP2) stands inactive: 0.066; under FAM76B (UniProt Q5HYJ3), inactive: 0.057. In the case of FASN (UniProt P49327), the log2 fold change was inactive: -0.021.

Consider FKBP1A (UniProt P62942), for which the log2 fold change was inactive: -0.029. On the same count and under the same terms, under FBLL1 (UniProt A6NHQ2) stands inactive: -0.026; under FBXO5 (UniProt Q9UKT4), inactive: 0.118. On the same count and under the same terms, as for FARSB (UniProt Q9NSD9), the figure is inactive: -0.029; as for FLOT1 (UniProt O75955), inactive: -0.067; as for FCSK isoform 2 (UniProt Q8N0W3), inactive: 0.015.

For the target FBXO22 (UniProt Q8NEZ5), the log2 fold change was inactive: -0.016.

Take FN3K (UniProt Q9H479): the log2 fold change was inactive: -0.008.

In the case of FCGR2A (UniProt P12318), the log2 fold change is inactive: 0.051. On to FN3KRP (UniProt Q9HA64), for which the log2 fold change is inactive: 0.013. The same measure, in the same setting: as for FAM98A (UniProt Q8NCA5), the figure is inactive: -0.014; as for FKBP9 (UniProt O95302), inactive: -0.021. Same read-out and setting: under FAU (UniProt P62861) stands inactive: 0.036; under FKBP5 (UniProt Q13451), inactive: -0.039; under FDX2 (UniProt Q6P4F2), inactive: 0. Same read-out and setting: as for FAM32A (UniProt Q9Y421), the figure is inactive: 0.047.
